Measured values published in article PMC12624062.
These are yes or no findings as the source states them, for the method shown. Binding seen in cells or lysates may run through a third protein. For some of these results: Binding can be weak; no strength is given.

Protein sequences, listed by entry. Tags and fused reporters are not part of them. Lines headed by an entry give the natural chain unless they say otherwise; changes in a name come on top.
UniProt Q9JMB7: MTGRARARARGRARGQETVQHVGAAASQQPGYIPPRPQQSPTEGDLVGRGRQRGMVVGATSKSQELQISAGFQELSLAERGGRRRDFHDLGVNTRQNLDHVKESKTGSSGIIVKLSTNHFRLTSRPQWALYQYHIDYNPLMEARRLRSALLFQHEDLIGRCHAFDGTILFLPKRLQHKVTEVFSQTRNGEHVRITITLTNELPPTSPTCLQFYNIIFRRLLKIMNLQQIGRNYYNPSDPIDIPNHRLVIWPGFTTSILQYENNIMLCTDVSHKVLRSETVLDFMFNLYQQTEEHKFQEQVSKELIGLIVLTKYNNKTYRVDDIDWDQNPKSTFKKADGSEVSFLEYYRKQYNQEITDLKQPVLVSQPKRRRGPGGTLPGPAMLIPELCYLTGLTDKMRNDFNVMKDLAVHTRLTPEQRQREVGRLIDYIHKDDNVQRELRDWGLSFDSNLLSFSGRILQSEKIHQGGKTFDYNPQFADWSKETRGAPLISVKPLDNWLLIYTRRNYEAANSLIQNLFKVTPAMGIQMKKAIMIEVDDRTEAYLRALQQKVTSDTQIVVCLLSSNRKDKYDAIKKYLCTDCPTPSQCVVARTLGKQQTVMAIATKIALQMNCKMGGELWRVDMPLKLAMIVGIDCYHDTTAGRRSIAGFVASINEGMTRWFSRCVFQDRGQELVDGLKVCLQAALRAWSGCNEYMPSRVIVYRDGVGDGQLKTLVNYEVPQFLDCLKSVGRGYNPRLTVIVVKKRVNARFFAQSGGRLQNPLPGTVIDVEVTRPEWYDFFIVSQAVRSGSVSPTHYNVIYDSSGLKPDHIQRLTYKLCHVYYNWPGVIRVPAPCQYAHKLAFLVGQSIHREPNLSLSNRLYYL

biological target: T1, ASZ1 (mouse) (UniProt Q8VD46); test: co-IP; 293T cells transiently transfected with tagged mouse proteins; lysis in 150 mM NaCl, 50 mM Tris-HCl pH 7.4, 1% Triton X-100, 1 mM EDTA; Protein A/G agarose beads and antibodies overnight at 4 °C; washes with 300 mM NaCl; Western blot for Flag, HA, GFP; some panels with the methyltransferase inhibitor MTA
T1 sequence: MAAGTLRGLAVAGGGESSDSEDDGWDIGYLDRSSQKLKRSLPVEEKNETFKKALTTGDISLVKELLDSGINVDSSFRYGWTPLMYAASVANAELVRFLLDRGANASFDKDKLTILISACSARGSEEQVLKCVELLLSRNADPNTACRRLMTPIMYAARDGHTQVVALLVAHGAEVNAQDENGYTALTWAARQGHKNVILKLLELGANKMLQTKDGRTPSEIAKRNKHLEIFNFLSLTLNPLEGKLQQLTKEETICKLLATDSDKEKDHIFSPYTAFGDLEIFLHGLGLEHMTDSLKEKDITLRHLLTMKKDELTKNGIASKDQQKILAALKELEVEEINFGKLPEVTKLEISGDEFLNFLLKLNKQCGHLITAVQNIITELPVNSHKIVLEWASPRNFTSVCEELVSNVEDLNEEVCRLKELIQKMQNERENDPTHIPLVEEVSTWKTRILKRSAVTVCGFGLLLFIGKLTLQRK

Substance	binding
PIWIL2 C-terminal region (mouse) (domain or fragment)	no binding
PIWIL2 N-terminal region (mouse) (domain or fragment)	no binding

biological target: T2, TDRD1 (mouse) (UniProt Q99MV1); test: as above
T2 sequence: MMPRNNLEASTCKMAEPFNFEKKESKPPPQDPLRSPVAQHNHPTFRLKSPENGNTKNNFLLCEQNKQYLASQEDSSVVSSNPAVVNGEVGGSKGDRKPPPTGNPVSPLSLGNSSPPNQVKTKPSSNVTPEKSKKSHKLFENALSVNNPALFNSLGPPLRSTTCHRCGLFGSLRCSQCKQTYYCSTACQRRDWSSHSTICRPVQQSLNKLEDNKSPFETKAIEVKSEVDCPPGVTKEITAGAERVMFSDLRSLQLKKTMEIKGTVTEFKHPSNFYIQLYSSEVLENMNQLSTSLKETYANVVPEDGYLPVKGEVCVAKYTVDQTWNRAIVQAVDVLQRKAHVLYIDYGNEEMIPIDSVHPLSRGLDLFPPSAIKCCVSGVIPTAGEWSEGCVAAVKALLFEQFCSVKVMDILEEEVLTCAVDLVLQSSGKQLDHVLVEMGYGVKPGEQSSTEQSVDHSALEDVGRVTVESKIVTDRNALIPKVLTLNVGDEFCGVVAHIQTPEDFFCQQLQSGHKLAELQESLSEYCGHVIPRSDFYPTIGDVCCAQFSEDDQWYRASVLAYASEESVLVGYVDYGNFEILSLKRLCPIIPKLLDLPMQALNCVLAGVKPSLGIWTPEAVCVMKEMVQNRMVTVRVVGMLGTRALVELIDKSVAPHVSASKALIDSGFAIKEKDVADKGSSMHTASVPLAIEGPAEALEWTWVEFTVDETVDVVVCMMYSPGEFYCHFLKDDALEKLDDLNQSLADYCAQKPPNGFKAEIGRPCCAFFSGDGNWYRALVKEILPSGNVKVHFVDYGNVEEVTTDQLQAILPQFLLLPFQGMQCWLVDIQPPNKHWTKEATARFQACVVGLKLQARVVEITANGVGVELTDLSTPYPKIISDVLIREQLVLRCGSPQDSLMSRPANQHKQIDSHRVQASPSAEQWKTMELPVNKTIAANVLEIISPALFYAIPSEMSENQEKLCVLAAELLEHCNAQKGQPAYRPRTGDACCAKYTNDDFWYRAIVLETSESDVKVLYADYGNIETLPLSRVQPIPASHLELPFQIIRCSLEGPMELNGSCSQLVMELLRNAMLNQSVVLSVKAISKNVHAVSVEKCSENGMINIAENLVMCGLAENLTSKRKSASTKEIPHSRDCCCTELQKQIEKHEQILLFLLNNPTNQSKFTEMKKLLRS

Substance	binding
PIWIL1 N-terminal region (mouse) (domain or fragment)	binds
PIWIL1 RK mutation (from UniProt Q9JMB7)	binds
truncated PIWIL1, C-terminal deleted (mouse) (domain or fragment)	binds
truncated PIWIL1, N-terminal deleted (mouse) (domain or fragment)	binds
truncated PIWIL1, middle region deleted (from UniProt Q9JMB7)	binds
